Data: paper PMC3139631
Construct, isoform or probe ends are uncertain for at least one entry. For some of these results: A negative result means that nothing was seen under these conditions. Tags and fusion partners may be left off the protein sequences shown.

What was measured:
[1] = biological target: T1, CosR (rCosR) (UniProt Q0PBF4); assay: competition with a labelled probe; details: EMSA: 20 mM HEPES pH 7.6, 1 mM EDTA, 10 mM (NH4)2SO4, 5 mM DTT, 0.2% Tween 20, 30 mM KCl, 0.1 ug poly(dI-dC) in 10 ul, 37 C 15 min, recombinant protein, probe letters rebuilt from the primers and the genome
T1 sequence (looked up, limits assumed): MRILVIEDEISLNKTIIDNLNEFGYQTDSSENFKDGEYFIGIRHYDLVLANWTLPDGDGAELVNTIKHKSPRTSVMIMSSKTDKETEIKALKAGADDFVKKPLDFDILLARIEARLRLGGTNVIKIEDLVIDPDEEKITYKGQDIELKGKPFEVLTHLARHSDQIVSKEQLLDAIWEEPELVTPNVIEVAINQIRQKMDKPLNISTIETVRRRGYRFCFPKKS

[2] = biological target: T1, CosR (rCosR); assay: EMSA; details: rCosR 0-3.2 nM, probe 0.2 nM; EMSA: 20 mM HEPES pH 7.6, 1 mM EDTA, 10 mM (NH4)2SO4, 5 mM DTT, 0.2% Tween 20, 30 mM KCl, 0.1 ug poly(dI-dC) in 10 ul, 37 C 15 min; recombinant protein; label: 32P; probe letters rebuilt from the primers and the genome
[3] = biological target: T1, CosR (rCosR); assay: DNase I footprinting; details: 10 mM MgCl2, site BsodB; footprinting: same buffer + 10 mM MgCl2, 40 ul, 37 C 10 min; recombinant protein; label: 5'-32P on S9 strand; probe letters rebuilt from the primers and the genome

AAAGCTCCTGGTAAGGCCAAACAAGTGGGACAAACATTGGTATTTGGAGCTTCTCCAAAAGAAGTTGCACATGAGCAAAAGATTTTTGTTTTTGTATTTAACTGAGCATGAACTTCAAGACCTATAACTACTTCAAACATAAAATTTCCTTGAATTTTTAAATGTTTTATTTTATCTTTTTTTCTTTTAGAAAGGCTTTAAATATTAACTTTAAATGCTATAATTCTTAGACAATTTATATTTAAGGAGTTAAAATGCCATTATTAGACAGCTTTAAAGTTGACCATACTAAAATGCCAGCTCCTGCTGTGCGTTTAGCTAAAGTTATGAAAACACCTAAGGGTGATGATATTAGCGTATTTGATTTGCGT (double strand) [luxS promoter EMSA probe]
binding result ([1]; unlabeled N3 competes with labeled N3, label: 32P): binds | binding result [2]: binds

TTTTTGGGCAATTTGTTTGGCTTCATCTAAAGAATGCATTGCGCAAGTTCCGCATTGGTAGATATTAAGTTCAGGAATTTTGCTTTGATCGCTTACGCTTAAAACATCTTTCATGGCTGCTTCCCAAGCTTTTGCAATACTTTTCTCATCAGGTGTTCCAATTAAACTCATATAAAAACCCGTGCGACAACCCATAGGTGAAATATCAATAATTTCAACTGAATTTGAATTAAGATGATCTCTCATAAATCCTGCGAATAAATGTTCTAAGGTATGAGTACCTTTTTCGCTCATAATGTCTTTA (double strand) [luxS internal coding region (I.C)]
binding result ([1]; versus labeled luxS promoter N3): no binding

AATACTACCGCTCCTTTTGGACCTATGTTTTTATAAAGATTAAAATCTTGAACAATTTCATTGTTTCCTAATACCGCTGGAGCAGTAAAATCTAAAGCTTTTTTAGTAACTATCATATTTTCTCCTAAATAATAAATTTTATTGATAACGAAATTATATCGTTTAAATCTTTATTTTTTTTTAAATATCTAAGATAATATTAAAAATTTAAAAAAGTTATAATTATTATCAAATAAGGTAAATTTTTGATTATCAAAATTTACTTTATTTAAGAATTTTATGCTAAAATCTTTTAAATCTTAATATTAAATAAGGAGAAAAAATGGCTGTAAAAATTACAGATATATGTATTGCTTGTGGTTCTTGTATTGATGAGTGTCCAGTGAATGCTATCGTTGATGAT (double strand) [ahpC promoter EMSA probe]
binding result ([1]; unlabeled N4 competes with labeled N4, label: 32P): binds | binding result [2]: binds

GCGAAGGATCCTAGTAATGCTGAGATTAGTACAACTTTTTTCATATTTTCCTCCTTATGAATAATTTTTAGTTGCAAATTAATTGTAATTATTAAAAATCAACAAATAGATATTTTTTGTAAAAATATTTCAAAAAAATATAATTTTTTATATATATTTAAATTATTATTAAAATATATTATAAATGTATCTTATTTTATTTAGATTAAATAAATAGAAATTTTACCCACTAAGCTTTTAAGATATTTTTACTCTTTTTAATATTATTATGGTAATATTTTCAATATCAAACTAAAAATAAAGGAGAAATTATGTTTGAATTAAGAAAATTACCTTATGATACCAATGCTTTTGGTGATTTCTAGAGTGCTG (double strand) [sodB promoter EMSA probe]
binding result ([1]; unlabeled N1 competes with labeled N1, label: 32P): binds | binding result [2]: binds

TGCTTTTGGTGATTTTTTGAGTGCTGAAACTTTTAGCTATCATCATGGAAAACATCACAATACTTATGTTACAAATCTAAATAATCTTATTAAAGATACTGAATTTGCAGGTAAAGATCTTGTAAGTATTATCAAAACTTCAAATGGGGGCGTATTTAATAACGCAGCTCAAGTTTATAATCATGATTTTTATTTTGATTGCATTAAGCCAAGTACAGGCTGTGGCTGTGGCGGTTCATGTCAAAGTATAGATGCTAATTTACAAGCGGCACTAGAAAAAGAATTTGGATCTTTAGAAAATTTCAAAGCTGAATTTATCAAAGGCGCTACAGGAGTTTTTGGTTCAGGATGGTTTTGGTTAGTTTATAATACTAAAAATCAAAAACTAGAATTTGTAGGTACTTCAAACGCAGCTACACCAATTACTGAAGATAAAGTTCCTTTACTTGTTGTAGATGTTTGGGAACATGCTTATTATGTAGATCATCGCAATGCACGCCCTGCTTATTTAGAAAAATTCTATGCTCATATTAACTGGGAATTTGTTGCAAAAGCTTACGAATGGGCTTTAAAAGAAGGCATGGGATCAGTTAGCTTTTAT (double strand) [sodB internal coding region (I.C)]
binding result ([1]; versus labeled sodB promoter N1): no binding

GCTTGGAGTATTAGCTGCAAAAACATTAGCTGCGAAAGCACCTAGTAATGCTGAGATTAGTACAACTTTTTTCATATTTTCCTCCTTATGAATAATTTTTAGTTGCAAATTAATTGTAATTATTAAAAATCAACAAATAGATATTTTTTGTAAAAATATTTCAAAAAAATATAATTTTTTATATATATTTAAATTATTATTAAAATATATTATAAATGTATCTTATTTTATTTAGATTAAATAAATAGAAATTTTACCCACTAAGCTTTTAAGATATTTTTACTCTTTTTAATATTATTATGGTAATATTTTCAATATCAAACTAAAAATAAAGGAGAAATTATGTTTGAATTAAGAAAATTACCTTATGATACCAATGCTTTTGGTGATTTTTTGAGTGCTGAAACTTTTAGCTATCATCATGGAAAACATCACAATACTTATGTTACAAATCTAAATAATCTTATTAAAGATACTGAATTTGCAGGTAAAGATCT (double strand) [sodB promoter footprint probe]
binding result [3]: binds

TTTTTGCCAAGATATTCAGCCACGCCTTTAGGGTTAGCTTTCATACCTTCATCGCCCTTATTCCATCCTGCAGGACAAACTTCACCATGCTCATTTGTAAAAAGCATAGTATCAACCATTCTTAACATTTCATCTATATTTCTACCTAGTGGTAAATCATTAACCACAGCATGGCGAACTGTTCCATCAGCATCAAGCAAGAACGAACCACGAAGGGCAACTGCTTCTGCATAAAGTACATCAAAATTTCTAGCAATCTGCTTAGTTAAATCAGCAACAAGTGGGAATTTAACCTGACCAATACCACCTTGATTTACTGGAGT (double strand) [ahpC internal coding region (I.C)]
binding result ([1]; versus labeled ahpC promoter N4): no binding
